Results reported in the supplement of paper PMC6078165.

System: BT20
Assay: relative JC-1 red fluorescence (viability) vs pre-drug, coculture with fibroblast (fraction); higher = more viable cancer cells
Method: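 JC-1 labelled TNBC cells cocultured 1:1 (1,500 cells each) with CellTrace Violet stained primary or stromal fibroblasts in 384-well plates in FluoroBrite medium, treated with one of 42 anticancer drugs at 0.1, 1, 10 or 100 uM. JC-1 red fluorescence (mitochondrial integrity in cancer cells only) was read by plate reader every 8 h for 72 h. Values are normalised to each well's pre-drug value. The stock of one drug was tenfold lower, so its dose labels may be too high.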

O=C(O)C(=O)O.[NH-][C@@H]1CCCC[C@H]1[NH-].[Pt+2] [Oxaliplatin]
relative JC-1 red fluorescence
Settings	8 h	16 h	24 h	32 h	40 h	48 h	56 h	64 h	72 h
0.1 µM, coculture fibroblast: C12385	0.9156 ± 0.0091	0.921 ± 0.012	0.952 ± 0.029	0.913 ± 0.043	0.866 ± 0.055	0.841 ± 0.058	0.823 ± 0.065	0.82 ± 0.079	0.822 ± 0.097
0.1 µM, coculture fibroblast: H6013	0.948 ± 0.041	0.934 ± 0.077	0.872 ± 0.028	0.892 ± 0.034	0.881 ± 0.042	0.849 ± 0.019	0.816 ± 0.12	0.912 ± 0.011	0.881 ± 0.019
0.1 µM, coculture fibroblast: H6019	0.873 ± 0.02	0.81 ± 0.014	0.779 ± 0.04	0.71 ± 0.043	0.662 ± 0.053	0.644 ± 0.051	0.614 ± 0.06	0.599 ± 0.067	0.571 ± 0.069
0.1 µM, coculture fibroblast: H6076	0.921 ± 0.11	0.9352 ± 0.0052	0.874 ± 0.02	0.859 ± 0.019	0.846 ± 0.02	0.829 ± 0.011	0.837 ± 0.0099	0.8415 ± 0.0056	0.8443 ± 0.0043
0.1 µM, coculture fibroblast: H6231	0.98 ± 0.012	0.9101 ± 0.0015	0.8411 ± 0.0015	0.7902 ± 0.0066	0.7814 ± 0.00091	0.7417 ± 0.0025	0.712 ± 0.0074	0.704 ± 0.0087	0.703 ± 0.01
0.1 µM, coculture fibroblast: HADF	0.942 ± 0.014	0.948 ± 0.061	0.9236 ± 0.0044	0.88 ± 0.014	0.803 ± 0.12	0.93 ± 0.096	0.835 ± 0.081	0.838 ± 0.071	0.795 ± 0.1
0.1 µM, coculture fibroblast: HCFa	0.933 ± 0.0082	0.864 ± 0.029	0.817 ± 0.042	0.761 ± 0.051	0.721 ± 0.059	0.691 ± 0.054	0.678 ± 0.054	0.665 ± 0.058	0.632 ± 0.057
0.1 µM, coculture fibroblast: HCPF	0.852 ± 0.17	0.9229 ± 0.0088	0.859 ± 0.011	0.82 ± 0.029	0.788 ± 0.033	0.757 ± 0.04	0.729 ± 0.037	0.726 ± 0.038	0.704 ± 0.05
0.1 µM, coculture fibroblast: HHSteC	0.945 ± 0.058	0.918 ± 0.11	0.92 ± 0.11	0.867 ± 0.14	0.85 ± 0.13	0.825 ± 0.12	0.82 ± 0.1	0.808 ± 0.097	0.796 ± 0.079
0.1 µM, coculture fibroblast: HMF	0.861 ± 0.2	0.933 ± 0.035	0.847 ± 0.06	0.793 ± 0.063	0.759 ± 0.066	0.725 ± 0.058	0.692 ± 0.073	0.668 ± 0.065	0.653 ± 0.059
0.1 µM, coculture fibroblast: HPFa	0.89 ± 0.09	0.895 ± 0.057	0.892 ± 0.072	0.924 ± 0.059	0.908 ± 0.053	0.884 ± 0.053	0.879 ± 0.028	0.865 ± 0.016	0.837 ± 0.024
0.1 µM, coculture fibroblast: HUF	0.8915 ± 0.0022	0.8171 ± 0.0072	0.8 ± 0.017	0.732 ± 0.031	0.685 ± 0.033	0.651 ± 0.045	0.643 ± 0.054	0.637 ± 0.06	0.619 ± 0.063
0.1 µM, coculture fibroblast: Hs5	0.9927 ± 0.0079	0.931 ± 0.016	0.902 ± 0.024	0.8696 ± 0.0076	0.865 ± 0.01	0.8463 ± 0.008	0.8476 ± 0.0052	0.8268 ± 0.0046	0.8232 ± 0.0035
0.1 µM, coculture fibroblast: Hs27A	0.797 ± 0.091	0.818 ± 0.13	0.894 ± 0.13	0.977 ± 0.02	0.96 ± 0.032	0.958 ± 0.041	0.969 ± 0.035	0.966 ± 0.036	0.927 ± 0.037
0.1 µM, coculture fibroblast: Hs343T	0.848 ± 0.16	0.8894 ± 0.0021	0.765 ± 0.018	0.693 ± 0.012	0.6364 ± 0.0017	0.6033 ± 0.0056	0.5622 ± 0.003	0.544 ± 0.01	0.5227 ± 0.0014
0.1 µM, coculture fibroblast: WS1	0.848 ± 0.058	0.77 ± 0.065	0.72 ± 0.058	0.645 ± 0.041	0.586 ± 0.031	0.563 ± 0.025	0.544 ± 0.02	0.527 ± 0.017	0.526 ± 0.014
1 µM, coculture fibroblast: C12385	0.894 ± 0.0095	0.814 ± 0.022	0.766 ± 0.028	0.71 ± 0.031	0.662 ± 0.03	0.625 ± 0.029	0.598 ± 0.034	0.575 ± 0.031	0.556 ± 0.038
1 µM, coculture fibroblast: H6013	0.9624 ± 0.0063	0.916 ± 0.066	0.901 ± 0.067	0.864 ± 0.07	0.841 ± 0.084	0.839 ± 0.097	0.837 ± 0.11	0.817 ± 0.12	0.808 ± 0.12
1 µM, coculture fibroblast: H6019	0.848 ± 0.013	0.769 ± 0.03	0.743 ± 0.032	0.678 ± 0.015	0.633 ± 0.026	0.618 ± 0.036	0.583 ± 0.037	0.557 ± 0.045	0.539 ± 0.047
1 µM, coculture fibroblast: H6076	0.96 ± 0.046	0.855 ± 0.025	0.776 ± 0.011	0.751 ± 0.014	0.719 ± 0.027	0.705 ± 0.032	0.688 ± 0.038	0.682 ± 0.052	0.661 ± 0.051
1 µM, coculture fibroblast: H6231	0.734 ± 0.042	0.934 ± 0.011	0.7976 ± 0.0062	0.727 ± 0.0082	0.683 ± 0.02	0.637 ± 0.0085	0.5951 ± 0.0019	0.563 ± 0.017	0.531 ± 0.018
1 µM, coculture fibroblast: HADF	0.733 ± 0.028	0.9042 ± 0.0032	0.79498 ± 0.00021	0.787 ± 0.053	0.763 ± 0.072	0.723 ± 0.072	0.682 ± 0.065	0.645 ± 0.052	0.608 ± 0.039
1 µM, coculture fibroblast: HCFa	0.96 ± 0.021	0.917 ± 0.019	0.899 ± 0.025	0.857 ± 0.0091	0.826 ± 0.025	0.794 ± 0.023	0.774 ± 0.027	0.751 ± 0.016	0.709 ± 0.011
1 µM, coculture fibroblast: HCPF	0.875 ± 0.17	0.886 ± 0.045	0.798 ± 0.044	0.754 ± 0.045	0.707 ± 0.037	0.659 ± 0.039	0.615 ± 0.032	0.589 ± 0.025	0.554 ± 0.03
1 µM, coculture fibroblast: HHSteC	0.9025 ± 0.0027	0.82 ± 0.015	0.80393 ± 0.00031	0.72771 ± 0.00047	0.6739 ± 0.0036	0.6398 ± 0.00083	0.605 ± 0.0075	0.586 ± 0.013	0.563 ± 0.024
1 µM, coculture fibroblast: HMF	0.9788 ± 0.0076	0.8526 ± 0.0033	0.739 ± 0.03	0.674 ± 0.035	0.627 ± 0.048	0.572 ± 0.057	0.533 ± 0.066	0.497 ± 0.073	0.468 ± 0.064
1 µM, coculture fibroblast: HPFa	0.837 ± 0.16	0.892 ± 0.044	0.91 ± 0.077	0.829 ± 0.072	0.807 ± 0.079	0.764 ± 0.071	0.733 ± 0.074	0.699 ± 0.082	0.642 ± 0.078
1 µM, coculture fibroblast: HUF	0.89967 ± 0.0006	0.789 ± 0.026	0.76 ± 0.041	0.685 ± 0.041	0.636 ± 0.058	0.606 ± 0.061	0.587 ± 0.072	0.566 ± 0.078	0.553 ± 0.083
1 µM, coculture fibroblast: Hs5	0.99 ± 0.013	0.885 ± 0.0091	0.824 ± 0.0086	0.779 ± 0.019	0.734 ± 0.028	0.689 ± 0.034	0.653 ± 0.037	0.615 ± 0.041	0.589 ± 0.04
1 µM, coculture fibroblast: Hs27A	0.898 ± 0.051	0.786 ± 0.032	0.94798 ± 0.00086	0.9316 ± 0.006	0.8929 ± 0.003	0.87 ± 0.0049	0.8508 ± 0.0013	0.823 ± 0.013	0.769 ± 0.0082
1 µM, coculture fibroblast: Hs343T	0.9272 ± 0.0044	0.836 ± 0.039	0.748 ± 0.06	0.696 ± 0.057	0.662 ± 0.065	0.626 ± 0.064	0.594 ± 0.069	0.583 ± 0.053	0.559 ± 0.063
1 µM, coculture fibroblast: WS1	0.922 ± 0.029	0.825 ± 0.025	0.823 ± 0.042	0.784 ± 0.03	0.745 ± 0.029	0.725 ± 0.013	0.713 ± 0.0096	0.6948 ± 0.0066	0.694 ± 0.013

± gives the standard deviation of the averaged measurements. Values are relative to the signal before dosing, not to a vehicle control; the signal also falls without drug.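 Fibroblast labels name human fibroblasts: mostly primary ones from tissues such as uterus (C12385, HUF), lung (H6013), bone (Hs27A), adrenal (HADF) and skin (WS1), plus mammary HMF and breast cancer-associated Hs343T. The cancer cells are basal-like or mesenchymal-like triple-negative breast cancer lines. The paper calls a changed response a hit when it shifts by more than 3x the replicate standard deviation. The tissue of the other fibroblasts is not given here.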
